Laboratory results: PubChem BioAssay AID743454 (Peter MacCallum Cancer Centre, 2014)
The whole screen tested about 18,000 reagents; shown is a part drawn at random. 450 of them (2.5%) were called active. 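Single biological run; no consistent viability z cut-off exists, so the class columns, not z-scores, define the calls.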 Entries without a mark were called inactive.

Aim: 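Search for knock-downs that restore vorinostat killing in resistant colon cancer cells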 (primary screen)
Cell system: human HCT116-VR colon cancer cells, selected for vorinostat resistance
Reagents: siRNA pool against human genes, 40 nM siRNA pool
Timing: vorinostat for 24 h, read-out about 72 h after transfection
Conditions: vorinostat at 2.5 µM final
Read-out: 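Cell viability by CellTiter-Fluor and caspase 3/7 activity by luminescence, each scaled to mock wells per plate, duplicates averaged, then robust z-scored over all plates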
Reading the numbers: viability robust z-score: higher = more viable cells than screen typical; caspase robust z-score: higher = more caspase 3/7 activity than screen typical
Active means: 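Hits are knock-downs in viability class RV1/RV2 or caspase class CA1/CA2, excluding ones that killed cells in the no-drug cell-count arm; hits then retested with single siRNAs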

viability hit class	caspase hit class	viability robust z-score	caspase robust z-score	target gene
no change	no change	-0.34	-0.96	COQ10B (GeneID 80219)
no change	no change	0.66	1.52	PDE4A (GeneID 5141)
no change	no change	0.54	0.85	FLT3LG (GeneID 2323)
no change	no change	-0.12	-0.13	LSM1 (GeneID 27257)
no change (active)	CA1 (caspase activation)	-1.22	5.75	KCNK6 (GeneID 9424)
no change	no change	1.11	-0.12	SAMD7 (GeneID 344658)
no change	no change	1.05	-0.26	INS-IGF2 (GeneID 723961)
no change	no change	0.12	0.38	ZBTB4 (GeneID 57659)
no change	no change	-0.34	2.17	H3C8 (GeneID 8355)
no change	no change	-0.68	2.63	LRRC20 (GeneID 55222)
no change	no change	0.19	-0.74	DNAAF10 (GeneID 116143)
no change	no change	-1.87	1.25	C19orf33 (GeneID 64073)
no change	no change	0.06	-0.44	ZBTB7A (GeneID 51341)
no change	no change	0.99	0.39	SLC4A3 (GeneID 6508)
no change	no change	-2.23	0.34	BCAR1 (GeneID 9564)
no change	no change	0.44	-0.24	RAVER2 (GeneID 55225)
no change	no change	-2.29	2.5	HES4 (GeneID 57801)
no change	no change	-0.54	-0.38	PSME1 (GeneID 5720)
no change	no change	0.23	1.77	ZNF556 (GeneID 80032)
no change	no change	0.57	-0.49	PRPF38B (GeneID 55119)
no change	no change	0.64	0.46	BICRA (GeneID 29998)
no change	no change	-0.28	-0.04	ZNF619 (GeneID 285267)
no change	no change	0.03	-0.16	RCC1L (GeneID 81554)
no change	no change	-0.82	-0.38	SERPINA5 (GeneID 5104)
no change	no change	-0.36	-0.76	PTPN13 (GeneID 5783)
no change	no change	-2.02	-0.96	NOP56 (GeneID 10528)
no change	no change	0.22	-0.12	ARL13B (GeneID 200894)
no change	no change	0.46	0.5	ZNF93 (GeneID 81931)
no change	no change	-0.64	-0.78	RBM26 (GeneID 64062)
no change (active)	CA2 (caspase activation)	-1.42	7.66	ANKRD13C-DT (GeneID 11147)
no change	no change	-2.54	-1.23	EXOSC10 (GeneID 5394)
no change	no change	-0.02	-0.34	KCNN2 (GeneID 3781)
no change	no change	1.6	0.26	CD300LF (GeneID 146722)
no change	no change	0.24	1.98	UBE2J2 (GeneID 118424)
no change	no change	-0.27	2.33	PCOLCE (GeneID 5118)
no change	no change	-0.53	-0.72	TEX13A (GeneID 56157)
no change	no change	1.09	-0.13	ZNF431 (GeneID 170959)
no change (active)	CA1 (caspase activation)	0.48	6.72	PPIAL4A (GeneID 653505)
no change	no change	0.22	-0.09	CES4A (GeneID 283848)

Laid out differently: entries from further up.
{"target gene": "ZBTB7A (GeneID 51341)", "viability hit class": "no change", "caspase hit class": "no change", "viability robust z-score": 0.06, "caspase robust z-score": -0.44}
{"target gene": "SLC4A3 (GeneID 6508)", "viability hit class": "no change", "caspase hit class": "no change", "viability robust z-score": 0.99, "caspase robust z-score": 0.39}
{"target gene": "BCAR1 (GeneID 9564)", "viability hit class": "no change", "caspase hit class": "no change", "viability robust z-score": -2.23, "caspase robust z-score": 0.34}
